# The other results are listed elsewhere or left out. Further columns of the screen follow, without active or inactive calls. The list favours compounds with an active or inconclusive main result. Potencies come from curve fits of mixed quality, noted in brackets.
# Assay: qHTS Assay to Find Inhibitors of Chronic Active B-Cell Receptor Signaling
# Settings: ABC-DLBCL IkBa-CBG/CBR reporter, luminescence ratio (green luciferase fused to IkBa over red control in TMD8 lymphoma cells), 4 h
# Procedure, shortened: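 Concentration-response series (up to 46 uM) were applied to TMD8 dual-reporter cells for 4 h at 37C with doxycycline. Green/red ratio, after filter-overlap correction, defined %Activity; red signal alone was normalised to basal cells and zero luminescence.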
# [1] = measured here: CBR red luminescence, cell number
# [2] = measured here: IkBa-CBG green luminescence
compound,measurement,setting,value
CCOc1cc(N2CCOCC2)c(OCC)cc1NC(=O)COC(=O)CCOc1ccc(C)cc1,AC50,[1],"14.6 µM [falling, partial curve]"
same,AC50,[2],"8.2 µM [rising, partial curve, poor fit]"
O=C(N/N=C/c1ccncc1)c1ccc(NS(=O)(=O)c2cccs2)cc1,AC50,[1],"12.6 µM [falling, partial curve, poor fit]"
Cc1c(C(=O)Oc2cccc3ccccc23)cnn1-c1ccccc1,AC50,[1],"0.517 µM [rising, full curve, poor fit]"
O=C1N[C@@H](c2ccccc2)COC(=O)[C@H](Cc2ccc(F)cc2)CC/C=C/C[C@H]1CC(=O)N(CCO)Cc1ccccc1,AC50,[1],"3.26 µM [falling, partial curve]"
CCOC(=O)C1=C(C)Nc2ncnn2C1c1cc(OC)ccc1OC (configuration not stated),AC50,[1],"1.64 µM [falling, single point]"
CCCCCCCCCC(=O)Nn1cnc2ccccc2c1=O,AC50,[1],"35.5 µM [rising, single point]"
COc1cccc(NC(=O)C(=O)N/N=C/c2cc(C)n(-c3ccc(Cl)c(Cl)c3)c2C)c1,AC50,[1],"7.31 µM [falling, partial curve, poor fit]"
CCN(CC)C(=O)CSc1nc(-c2cccs2)cc(-c2cccs2)c1C#N,AC50,[1],"3.26 µM [falling, full curve, poor fit]"
COC(=O)c1cccc(Nc2ncnc3sccc23)c1,AC50,[1],"35.5 µM [falling, single point]"
CCCC(=O)OCCNc1cc(Sc2nccn2C)c2nonc2c1[N+](=O)[O-],AC50,[2],"3.66 µM [falling, full curve]"
O=C(/C=C\c1ccc(-c2cccc([N+](=O)[O-])c2)o1)N1CCOCC1,AC50,[1],"8.91 µM [rising, partial curve, poor fit]"
Cc1ccc2occ(CN3CCN(c4ccccc4)CC3)c(=O)c2c1,AC50,[1],"20.6 µM [rising, single point]"
Cc1cc([N+](=O)[O-])ccc1NC(=O)c1cc2ccccc2o1,AC50,[1],"0.501 µM [rising, full curve, poor fit]"
Cc1occc1C(=O)Nc1cc(C(F)(F)F)ccc1Cl,AC50,[1],"0.231 µM [rising, full curve, poor fit]"
COc1ccc2[nH]c(CN3CCC(CO)(CCOc4ccccc4)CC3)c(C)c2c1,AC50,[1],"35.5 µM [falling, single point]"
N/C(=N\OC(=O)c1ccccc1[N+](=O)[O-])c1ccccn1,AC50,[1],"25.1 µM [falling, single point]"
Cc1cccc(C(=O)OCC(=O)N2CCCC2=O)c1O,AC50,[1],"16.4 µM [falling, single point]"
CCOc1ccc(NC(=O)CN(C)C(=O)c2cc(-c3cccs3)nn2-c2ccccc2)cc1OCC,AC50,[1],"3.26 µM [rising, single point]"
c1ccc2c(-c3ccncc3)c[nH]c2c1,AC50,[1],"28.2 µM [falling, single point]"
CC(=O)Nc1sc(NC(=O)c2ccco2)nc1-c1cccs1,AC50,[1],"0.501 µM [falling, full curve, poor fit]"
COC(=O)C1=C(C)N(Cc2ccccc2)C(=S)N[C@H]1c1cccc(F)c1,AC50,[1],"35.5 µM [falling, single point]"
COc1ccc(C2=NS(=O)(=O)N(C)C(C(=O)NCc3ccco3)=C2)cc1OC,AC50,[1],"0.112 µM [rising, full curve, poor fit]"
COc1cccc(C2=NOC(C(=O)Nc3ccccc3SC)C2)c1 (configuration not stated),AC50,[1],"5.8 µM [falling, partial curve, poor fit]"
COCCNC(=O)CCCn1c(=O)c2cc(OC)c(OC)cc2n(CC(=O)Nc2ccc(F)cc2)c1=O,AC50,[1],"22.4 µM [falling, partial curve, poor fit]"
CC(C)Cc1nnc(NC(=O)c2ccncc2)s1,AC50,[1],"20 µM [falling, single point]"
Cc1cc(SCC(=O)c2ccccc2)n2nc(C)nc2n1,AC50,[1],"29.1 µM [falling, single point]"
Cc1[nH]n(-c2ccc(F)cc2)c(=O)c1/C=N/c1sc2c(c1C#N)CCCC2,AC50,[1],"3.16 µM [falling, full curve]"
O=C1CCCC2=C1C(c1ccc(Br)cc1)c1c([nH]c(=S)[nH]c1=O)N2 (configuration not stated),AC50,[1],"23.1 µM [falling, single point]"
C=CCN(c1ccc(C(=O)NCCc2ccccc2)cc1)S(C)(=O)=O,AC50,[1],"32.6 µM [rising, single point]"
CC1(NC(=O)Cc2csc(-c3cccc(Cl)c3)n2)CCS(=O)(=O)C1 (configuration not stated),AC50,[1],"1.84 µM [rising, full curve]"
COc1ccccc1NC(=O)c1ccc(CS(=O)(=O)c2ccc(C)cc2)cc1,AC50,[1],"10 µM [falling, partial curve, poor fit]"
Cc1ccc2nc(N/N=C/c3ccccc3C#N)nc(-c3ccccc3)c2c1,AC50,[1],"2.24 µM [falling, full curve, poor fit]"
Cc1ccc(Oc2ccc(-c3nc(N)nc(N)n3)cc2)cc1C,AC50,[1],"29.1 µM [rising, single point]"
same,AC50,[2],"32.6 µM [falling, partial curve, poor fit]"
Nc1[nH]n(-c2ccccc2)c(=O)c1N=Nc1ccccc1,AC50,[1],"2.51 µM [falling, full curve]"
CC1(C)CCC[C@]2(C)[C@H]3Cc4cc(O)ccc4O[C@]3(C)CC[C@@H]12,AC50,[1],"32.6 µM [rising, single point]"
COC(=O)c1c(NC(=O)C2C3CCC(C3)C2C(=O)O)sc2c1CCCCC2 (configuration not stated),AC50,[1],"35.5 µM [rising, single point]"
CCOC(=O)c1ccc(NC(=O)c2ccccc2)cc1,AC50,[1],"18.4 µM [falling, single point]"
CCOc1ccc(C=NNc2ccc(S(=O)(=O)Nc3ccccc3C(=O)O)cc2[N+](=O)[O-])cc1OC,AC50,[1],"32.6 µM [rising, partial curve, poor fit]"
COc1ccc(/C(N)=N/OC(=O)Cc2ccc(C)cc2)cc1OC,AC50,[1],"4.61 µM [falling, single point]"
O=C(Cn1nnc(-c2ccc(F)cc2)n1)OCC(=O)c1ccccc1,AC50,[1],"22.4 µM [falling, partial curve, poor fit]"

# 2 records drawn at random from the list so far:
compound,measurement,setting,value
COc1cccc(C2=NOC(C(=O)Nc3ccccc3SC)C2)c1 (configuration not stated),AC50,[1],"5.8 µM [falling, partial curve, poor fit]"
CCOc1cc(N2CCOCC2)c(OCC)cc1NC(=O)COC(=O)CCOc1ccc(C)cc1,AC50,[2],"8.2 µM [rising, partial curve, poor fit]"

# Source: PubChem BioAssay AID493014 (National Center for Advancing Translational Sciences (NCATS), 2011)
